The experiment has as its target T1, MMS19-Flag (Arabidopsis thaliana) (UniProt Q0WVF8).
T1 sequence: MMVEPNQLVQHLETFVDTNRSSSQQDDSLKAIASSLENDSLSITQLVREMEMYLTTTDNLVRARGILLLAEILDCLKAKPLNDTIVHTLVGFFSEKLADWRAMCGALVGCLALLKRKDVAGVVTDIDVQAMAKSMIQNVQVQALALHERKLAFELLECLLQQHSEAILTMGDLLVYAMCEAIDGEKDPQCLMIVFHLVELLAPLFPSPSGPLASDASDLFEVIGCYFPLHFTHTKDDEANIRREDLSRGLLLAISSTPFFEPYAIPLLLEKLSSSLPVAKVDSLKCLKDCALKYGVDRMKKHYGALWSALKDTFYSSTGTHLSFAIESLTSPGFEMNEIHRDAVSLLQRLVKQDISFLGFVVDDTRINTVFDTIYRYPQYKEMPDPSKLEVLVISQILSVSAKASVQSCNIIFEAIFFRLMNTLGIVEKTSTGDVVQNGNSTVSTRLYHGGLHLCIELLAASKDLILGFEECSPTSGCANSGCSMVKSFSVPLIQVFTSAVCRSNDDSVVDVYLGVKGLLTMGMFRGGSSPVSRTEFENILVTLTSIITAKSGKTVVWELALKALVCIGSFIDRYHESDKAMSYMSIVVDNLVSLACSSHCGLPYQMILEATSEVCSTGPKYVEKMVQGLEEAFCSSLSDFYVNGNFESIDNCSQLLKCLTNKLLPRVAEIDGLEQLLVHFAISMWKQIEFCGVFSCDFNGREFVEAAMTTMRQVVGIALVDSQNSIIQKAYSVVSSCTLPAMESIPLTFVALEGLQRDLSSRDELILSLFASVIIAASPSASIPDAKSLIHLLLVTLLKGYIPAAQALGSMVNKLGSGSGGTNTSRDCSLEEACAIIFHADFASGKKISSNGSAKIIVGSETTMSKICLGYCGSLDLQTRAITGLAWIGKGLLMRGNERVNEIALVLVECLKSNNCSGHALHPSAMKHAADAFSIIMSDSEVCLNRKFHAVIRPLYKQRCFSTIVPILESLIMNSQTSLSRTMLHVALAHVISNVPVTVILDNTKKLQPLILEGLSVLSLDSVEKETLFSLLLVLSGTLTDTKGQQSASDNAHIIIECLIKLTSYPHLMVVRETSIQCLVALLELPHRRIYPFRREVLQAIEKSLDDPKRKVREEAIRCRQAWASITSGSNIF
Briefly: co-IP; total protein extracts of T2 transgenic plants carrying two tagged transgenes, antibody-conjugated beads, washed 5 or 6 times with lysis buffer, Western blotting. In general terms: A western blot detects proteins with antibodies after separation by electrophoresis.

By UniProt entry, the sequences of proteins in these tests, tags left out. Where a name states a change or a piece, a line headed by the entry shows the natural chain unless it says otherwise.
UniProt Q9FHA3: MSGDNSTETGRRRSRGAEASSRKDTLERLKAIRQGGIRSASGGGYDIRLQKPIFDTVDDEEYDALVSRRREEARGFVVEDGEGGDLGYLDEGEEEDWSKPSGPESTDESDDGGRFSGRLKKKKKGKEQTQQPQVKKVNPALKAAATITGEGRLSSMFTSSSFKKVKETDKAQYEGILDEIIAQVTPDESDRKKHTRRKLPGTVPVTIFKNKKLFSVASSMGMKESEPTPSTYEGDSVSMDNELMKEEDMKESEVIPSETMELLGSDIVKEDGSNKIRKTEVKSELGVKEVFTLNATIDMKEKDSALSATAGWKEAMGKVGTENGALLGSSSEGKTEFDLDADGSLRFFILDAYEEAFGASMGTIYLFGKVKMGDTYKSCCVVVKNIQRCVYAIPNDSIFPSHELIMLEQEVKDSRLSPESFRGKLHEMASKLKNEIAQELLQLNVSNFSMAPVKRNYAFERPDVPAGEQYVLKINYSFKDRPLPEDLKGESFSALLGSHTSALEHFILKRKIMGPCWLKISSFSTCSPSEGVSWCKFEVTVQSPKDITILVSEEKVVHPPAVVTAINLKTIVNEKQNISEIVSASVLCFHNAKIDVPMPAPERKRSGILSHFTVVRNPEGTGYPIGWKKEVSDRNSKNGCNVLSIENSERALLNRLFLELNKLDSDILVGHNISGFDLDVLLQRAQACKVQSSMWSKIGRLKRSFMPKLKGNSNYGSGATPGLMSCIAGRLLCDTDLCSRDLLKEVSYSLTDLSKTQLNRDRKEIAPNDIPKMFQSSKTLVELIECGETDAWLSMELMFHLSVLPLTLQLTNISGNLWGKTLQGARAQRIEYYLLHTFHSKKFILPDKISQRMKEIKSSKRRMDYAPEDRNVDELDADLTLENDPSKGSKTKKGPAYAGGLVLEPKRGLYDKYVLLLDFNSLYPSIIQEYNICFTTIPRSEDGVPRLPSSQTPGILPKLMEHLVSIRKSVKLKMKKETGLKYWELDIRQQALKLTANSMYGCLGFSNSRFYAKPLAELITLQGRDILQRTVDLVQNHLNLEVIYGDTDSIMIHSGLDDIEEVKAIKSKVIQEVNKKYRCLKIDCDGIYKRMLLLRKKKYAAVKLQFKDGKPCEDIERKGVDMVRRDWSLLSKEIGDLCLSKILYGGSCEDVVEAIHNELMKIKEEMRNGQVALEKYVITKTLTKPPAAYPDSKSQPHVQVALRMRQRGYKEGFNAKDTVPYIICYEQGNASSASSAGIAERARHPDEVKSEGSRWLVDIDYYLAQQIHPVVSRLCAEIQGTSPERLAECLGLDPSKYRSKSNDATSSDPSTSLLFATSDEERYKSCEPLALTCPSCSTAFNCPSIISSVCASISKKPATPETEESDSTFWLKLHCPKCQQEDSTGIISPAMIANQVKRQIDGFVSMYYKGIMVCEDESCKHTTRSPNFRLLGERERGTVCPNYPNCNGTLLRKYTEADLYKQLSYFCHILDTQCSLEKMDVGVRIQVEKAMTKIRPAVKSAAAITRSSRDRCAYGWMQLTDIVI

These are yes or no findings as the source states them, for the method shown. Binding seen in cells or lysates may run through a third protein. A result given as binding can be weak or reduced; the word gives no strength. Tags and fused reporters may be left off the sequences shown.

Regarding ICU2-Myc (from UniProt Q9FHA3), the binding result is reported as “binds”.

Values taken from article PMC4459967.
